Results: publication PMC7885398
A negative result means that nothing was seen under these conditions. For some assays here: For at least one entry, the source does not settle the construct or the ends of the probe.

The chains behind the UniProt entries cited, without tags or fusion partners. Residues count along the entry.
UniProt P02769, 25-607: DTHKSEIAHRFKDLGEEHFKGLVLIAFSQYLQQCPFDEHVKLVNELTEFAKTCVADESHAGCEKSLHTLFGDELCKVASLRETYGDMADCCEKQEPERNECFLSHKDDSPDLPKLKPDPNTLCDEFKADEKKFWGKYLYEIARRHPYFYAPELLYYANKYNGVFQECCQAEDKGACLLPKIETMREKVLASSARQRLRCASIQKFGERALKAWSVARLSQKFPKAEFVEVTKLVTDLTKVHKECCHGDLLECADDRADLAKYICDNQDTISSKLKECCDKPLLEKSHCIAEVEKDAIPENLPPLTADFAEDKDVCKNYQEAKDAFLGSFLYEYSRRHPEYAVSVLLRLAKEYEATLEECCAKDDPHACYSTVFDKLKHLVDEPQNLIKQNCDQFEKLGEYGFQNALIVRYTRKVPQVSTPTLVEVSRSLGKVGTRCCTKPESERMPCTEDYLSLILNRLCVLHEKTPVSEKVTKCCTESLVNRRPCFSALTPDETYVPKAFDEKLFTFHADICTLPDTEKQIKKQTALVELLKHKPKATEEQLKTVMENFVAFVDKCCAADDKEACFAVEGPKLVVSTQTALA

Legend:
[1] = system: DPPIV (also printed DDPIV); experiment: competition: displacement of y-CDs-APT from Fe3O4-cDNA, ratiometric fluorescence; conditions: 1000 ng/mL protein, Fe3O4-cDNA (S2); conjugated to yellow carbon dots (y-CDs); attachment end not stated; probe hybridisation 25 °C, 60 min; DNase I amplification; commercial protein; label: y-CDs (emission 580 nm); single-stranded DNA
BSA = BSA (UniProt P02769); experiment: as above; conditions: 1000 ng/mL protein, Fe3O4-cDNA (S2); conjugated to yellow carbon dots (y-CDs); attachment end not stated; probe hybridisation 25 °C, 60 min; DNase I amplification; commercial protein; label: y-CDs (emission 580 nm); single-stranded DNA

ATCTAACTGCTGCGCCGCCGGGAAAATACTGTACGGTTAGA [APT (PTK7 aptamer), as y-CDs-APT]
binding result [1]: no binding
binding result (BSA): no binding
